PubChem BioAssay AID1671195 | Yale University – 2021

- Aim: 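Genes whose knockdown alters LDL uptake in liver cancer cells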 (primary screen)
- Cells: human Huh7 hepatoma cells
- Reagents: siRNA pool against human genes, 18 nM
- Time to read-out: about 2 to 2.5 days of knockdown, then 8 h LDL uptake
- Conditions: DiI-labelled LDL at 30 µg/ml for 8 h, in lipoprotein-deficient serum medium
- Measurement: 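Per-cell DiI-LDL intensity by automated imaging; well means scaled to the plate median and given as a robust z-score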
- Direction: robust z-score: higher = more LDL uptake after knockdown
- Rule for the call: 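a gene counts as active if at least two replicate z-scores exceed ±2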
The deposit covers about 22,000 reagents; this is a random part of them. About 1,510 of all reagents (6.9%) were called active. 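Active includes knockdowns raising or lowering LDL uptake; positive z-scores mean more uptake, negative mean less.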

{"gene":"EPN2 (GeneID 22905)","robust z-score, replicate 1":-0.931,"robust z-score, replicate 2":-1.18,"robust z-score, replicate 3":-1.27,"activity call":"inactive"}
{"gene":"ZFAND5 (GeneID 7763)","robust z-score, replicate 1":-0.231,"robust z-score, replicate 2":0.947,"robust z-score, replicate 3":0.213,"activity call":"inactive"}
{"gene":"CALHM6 (GeneID 441168)","robust z-score, replicate 1":0.0874,"robust z-score, replicate 2":-0.0912,"robust z-score, replicate 3":-0.458,"activity call":"inactive"}
{"gene":"ABHD2 (GeneID 11057)","robust z-score, replicate 1":-0.0223,"robust z-score, replicate 2":-0.338,"robust z-score, replicate 3":-0.0234,"activity call":"inactive"}
{"gene":"GRHL1 (GeneID 29841)","robust z-score, replicate 1":0.413,"robust z-score, replicate 2":0.378,"robust z-score, replicate 3":-1.4,"activity call":"inactive"}
{"gene":"SLC30A4 (GeneID 7782)","robust z-score, replicate 1":1.6,"robust z-score, replicate 2":1.55,"robust z-score, replicate 3":1.18,"activity call":"inactive"}
{"gene":"CACNA1A (GeneID 773)","robust z-score, replicate 1":0.558,"robust z-score, replicate 2":0.9,"robust z-score, replicate 3":0.273,"activity call":"inactive"}
{"gene":"PLK3 (GeneID 1263)","robust z-score, replicate 1":0.0629,"robust z-score, replicate 2":0.308,"robust z-score, replicate 3":0.178,"activity call":"inactive"}
{"gene":"ATP2A1 (GeneID 487)","robust z-score, replicate 1":-1.56,"robust z-score, replicate 2":-1.42,"robust z-score, replicate 3":-1.77,"activity call":"inactive"}
{"gene":"PRDM9 (GeneID 56979)","robust z-score, replicate 1":-0.315,"robust z-score, replicate 2":-0.148,"robust z-score, replicate 3":-0.156,"activity call":"inactive"}
{"gene":"IRAG1 (GeneID 10335)","robust z-score, replicate 1":0.326,"robust z-score, replicate 2":0.595,"robust z-score, replicate 3":-0.681,"activity call":"inactive"}

Next part (2 carried over from the part before).
{"gene":"PRDM9 (GeneID 56979)","robust z-score, replicate 1":-0.315,"robust z-score, replicate 2":-0.148,"robust z-score, replicate 3":-0.156,"activity call":"inactive"}
{"gene":"IRAG1 (GeneID 10335)","robust z-score, replicate 1":0.326,"robust z-score, replicate 2":0.595,"robust z-score, replicate 3":-0.681,"activity call":"inactive"}
{"gene":"ASPSCR1 (GeneID 79058)","robust z-score, replicate 1":2.9,"robust z-score, replicate 2":3.39,"robust z-score, replicate 3":3.91,"activity call":"active"}
{"gene":"ALKBH1 (GeneID 8846)","robust z-score, replicate 1":-1.2,"robust z-score, replicate 2":-0.888,"robust z-score, replicate 3":-1.14,"activity call":"inactive"}
{"gene":"IQCF1 (GeneID 132141)","robust z-score, replicate 1":-0.597,"robust z-score, replicate 2":-0.542,"robust z-score, replicate 3":-0.144,"activity call":"inactive"}
{"gene":"LOC440889 (retired record) (GeneID 440889)","robust z-score, replicate 1":-0.334,"robust z-score, replicate 2":-0.318,"robust z-score, replicate 3":-0.423,"activity call":"inactive"}
{"gene":"NHP2 (GeneID 55651)","robust z-score, replicate 1":0.503,"robust z-score, replicate 2":-1.58,"robust z-score, replicate 3":-0.487,"activity call":"inactive"}
{"gene":"NAB1 (GeneID 4664)","robust z-score, replicate 1":1.62,"robust z-score, replicate 2":1.05,"robust z-score, replicate 3":1.03,"activity call":"inactive"}
{"gene":"FIGNL2 (GeneID 401720)","robust z-score, replicate 1":1.39,"robust z-score, replicate 2":0.557,"robust z-score, replicate 3":0.908,"activity call":"inactive"}
{"gene":"CABP7 (GeneID 164633)","robust z-score, replicate 1":-0.092,"robust z-score, replicate 2":0.37,"robust z-score, replicate 3":-0.0815,"activity call":"inactive"}
{"gene":"GABRE (GeneID 2564)","robust z-score, replicate 1":0.966,"robust z-score, replicate 2":1.02,"robust z-score, replicate 3":0.813,"activity call":"inactive"}
{"gene":"ADGB (GeneID 79747)","robust z-score, replicate 1":0.42,"robust z-score, replicate 2":0.494,"robust z-score, replicate 3":0.501,"activity call":"inactive"}
{"gene":"OSR1 (GeneID 130497)","robust z-score, replicate 1":0.0243,"robust z-score, replicate 2":0.226,"robust z-score, replicate 3":-1.13,"activity call":"inactive"}
{"gene":"SMIM26 (GeneID 388789)","robust z-score, replicate 1":-1.41,"robust z-score, replicate 2":-2.04,"robust z-score, replicate 3":-1.91,"activity call":"active"}
{"gene":"MYMK (GeneID 389827)","robust z-score, replicate 1":-0.142,"robust z-score, replicate 2":0.0509,"robust z-score, replicate 3":0.00832,"activity call":"inactive"}
